Data published in US11434227B2, “Broad spectrum antibacterial activity of novel bisbenzimidazoles targeting topoisomerase IA and the synergistic composition of bisbenzimidazole with efflux pump inhibitors against pathogenic bacteria” (Jawaharlal Nehru University (JNU), priority 2016, dated 2022).

System: efflux and porin genes (acrAB-tolC, emrAB-tolC, ompC, ompF) in E. coli K12 cells
Assay: Gene expression analysis by real-time qPCR
Assay type: cell-based, Escherichia coli
Conditions: E. coli K12 cells treated with ¼ MIC

O=C(O)c1cn(C2CC2)c2cc(N3CCNCC3)c(F)cc2c1=O [Ciprofloxacin, reference compound]
gene expression of efflux pumps and porins: acrAB-tolC and emr AB-tolC activation and ompC and ompF down-regulation
